The record followed here is patent US20260176636.

For part of these data: A negative result means that nothing was seen under these conditions. For part of these data: For at least one entry, the source does not settle the construct or the ends of the probe.

The subject of data set [1] is thrombin (human alpha thrombin) (human). Nature of the data set: inhibition of the protein. The note with it: purified native protein, protein details: Haematologic Technologies Inc., single-stranded DNA.
In another data set the test system is factor Xa (human). The data set can be described thus: inhibition of the protein. The note with it: 5' dabigatran-C6 amide; 5' A(7) dA linker; purified native protein; protein details: Haematologic Technologies Inc.; label: biotin for BLI; single-stranded DNA; variant of HD22; dose not given here.
A further data set has as its system thrombin S195A (human). Nature of the data set: structure. The note with it: 5' dabigatran-C6 amide; 5' A(7) dA linker; crystal structure 2.2 Å, PDB 8TQS; aptamer on exosite 2, DAB in S1 pocket; purified recombinant protein; label: biotin for BLI; single-stranded DNA; variant of HD22.
Setting [2] is: 3' C6-dabigatran, dT linker, 3' linked conjugates similar potency to HD22-7A-DAB, values in figure, variant of HD22, dose not given here.

With “AGTCCGTGGTAGGGCAGGTTGGGGTGACTTT [HD22-2T-DAB]”, the “functional effect of the aptamer” value in data set [1] (3' C6-dabigatran, dT linker, similar potency to HD22-7A-DAB, reversed by 3TAO1, variant of HD22, dose not given here) is recorded as “active”. Take “AGTCCGTGGTAGGGCAGGTTGGGGTGACTTTT [HD22-3T-DAB]”: the “functional effect of the aptamer” value in data set [1] (setting [2]) is on record as “active”. “AAAAAAAAGTCCGTGGTAGGGCAGGTTGGGGTGACT [HD22-7A-DAB]”: the “functional effect of the aptamer” value is reported as “active” in data set [1] (5' dabigatran-C6 amide, 5' A(7) dA linker, complete inhibition of fibrinogen clotting at 50 nM and of FVIII cleavage at 100 nM, label: biotin for BLI, variant of HD22); “not active” with factor Xa (human). For the same sequence, the binding result in the data set with thrombin S195A (human) was “binds”. “AGTCCGTGGTAGGGCAGGTTGGGGTGACTT [HD22-1T-DAB]”: the “functional effect of the aptamer” value in data set [1] (setting [2]) was “active”. For the sequence “AAAAAAAAGTCCGTGGTAGGGCAGGTTGGGGTGACT [HD22-7A-DAB-3'invT]”, in data set [1] (5' dabigatran-C6, 3' inverted dT, similar potency to HD22-7A-DAB, variant of HD22-7A-DAB, dose not given here), the “functional effect of the aptamer” value is “active”. Regarding “AAAAAAAAGTCCGTGGTAGGGCAGGTTGGGGTGACT [HD22-7A-DAB-3'CH]”, the “functional effect of the aptamer” value in data set [1] (5' dabigatran-C6, 3' cholesterol, similar potency to HD22-7A-DAB, variant of HD22-7A-DAB, dose not given here) is on record as “active”. As to “GGTTGGTGTGGTTGGAAAAAAAAAAAA [HD1-12A-DAB]”, the “functional effect of the aptamer” value in data set [1] (3' C6-dabigatran, dA linker, much stronger than DAB, HD1 or mixture, reversed by HD1-AO, variant of HD1, dose not given here) is “active”.
